Reference: PubChem BioAssay AID1224830 (NIAID, 2016)
Shown is one part, drawn at random, of about 18,000 deposited reagents. About 2,900 of them (16%) were called active. 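Calls are made per well; low scores hint the gene aids the LPS response, high scores that it dampens it.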 Unmarked entries are inactive. Repeated entries: four replicate wells of each siRNA pool.

- Assay: 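Regulators of TLR4 signalling towards TNF-alpha in macrophage-like cells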 (primary screen)
- Cells: human THP-1 monocytic leukaemia cells, TNF dual-luciferase reporter clone, PMA-differentiated to macrophage-like cells
- Reagents: siRNA pool against human genes, 50 nM
- Time to read-out: LPS for 4 h, given about 3 days after siRNA transfection
- Treatment: bacterial LPS (TLR4 ligand), 10 ng/ml
- Measurement: 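Ratio of firefly to renilla light, scaled to the plate median and expressed as a robust z-score per replicate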
- Reading the numbers: TNF reporter robust z-score: higher = stronger TNF reporter response to LPS
- Rule for the call: 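Each well counts as active if its z-score is over 2.8 or under -1.5; controls are left without a call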

{"gene":"OR12D3 (olfactory receptor family 12 subfamily D member 3)","TNF reporter robust z-score":0.42}
{"gene":"OR12D3 (olfactory receptor family 12 subfamily D member 3)","TNF reporter robust z-score":2.14}
{"gene":"OR12D3 (olfactory receptor family 12 subfamily D member 3)","TNF reporter robust z-score":0.43}
{"gene":"OR12D3 (olfactory receptor family 12 subfamily D member 3)","TNF reporter robust z-score":1.16}
{"gene":"DDAH1 (dimethylarginine dimethylaminohydrolase 1)","TNF reporter robust z-score":-0.72}
{"gene":"DDAH1 (dimethylarginine dimethylaminohydrolase 1)","TNF reporter robust z-score":-0.18}
{"gene":"DDAH1 (dimethylarginine dimethylaminohydrolase 1)","TNF reporter robust z-score":-0.81}
{"gene":"DDAH1 (dimethylarginine dimethylaminohydrolase 1)","TNF reporter robust z-score":-0.4}
{"gene":"TOMM40L (translocase of outer mitochondrial membrane 40 like)","TNF reporter robust z-score":-1.27}
{"gene":"TOMM40L (translocase of outer mitochondrial membrane 40 like)","TNF reporter robust z-score":-0.92}
{"gene":"TOMM40L (translocase of outer mitochondrial membrane 40 like)","TNF reporter robust z-score":-0.86}
{"gene":"TOMM40L (translocase of outer mitochondrial membrane 40 like)","TNF reporter robust z-score":-1.13}
{"gene":"MS4A3 (membrane spanning 4-domains A3)","TNF reporter robust z-score":1.16}
{"gene":"MS4A3 (membrane spanning 4-domains A3)","TNF reporter robust z-score":-0.01}
{"gene":"MS4A3 (membrane spanning 4-domains A3)","TNF reporter robust z-score":-0.91}
{"gene":"SEC61A2 (SEC61 translocon subunit alpha 2)","TNF reporter robust z-score":1.21}
{"gene":"SEC61A2 (SEC61 translocon subunit alpha 2)","TNF reporter robust z-score":-0.6}
{"gene":"SEC61A2 (SEC61 translocon subunit alpha 2)","TNF reporter robust z-score":1.92}
{"gene":"SEC61A2 (SEC61 translocon subunit alpha 2)","TNF reporter robust z-score":-1.36}
{"gene":"SOHLH2","TNF reporter robust z-score":0.11}
{"gene":"SOHLH2","TNF reporter robust z-score":-0.68}
{"gene":"SOHLH2","TNF reporter robust z-score":-0.84}
{"gene":"SOHLH2","TNF reporter robust z-score":-0.46}
{"gene":"F2R (coagulation factor II thrombin receptor)","TNF reporter robust z-score":-0.48}
{"gene":"F2R (coagulation factor II thrombin receptor)","TNF reporter robust z-score":2.12}
{"gene":"F2R (coagulation factor II thrombin receptor)","TNF reporter robust z-score":0.78}
{"gene":"F2R (coagulation factor II thrombin receptor)","TNF reporter robust z-score":0.19}
{"gene":"TSLIG3B (tRNA splicing ligase complex subunit 3B)","TNF reporter robust z-score":0.38}
{"gene":"TSLIG3B (tRNA splicing ligase complex subunit 3B)","TNF reporter robust z-score":0.72}
{"gene":"TSLIG3B (tRNA splicing ligase complex subunit 3B)","TNF reporter robust z-score":-0.34}
{"gene":"TSLIG3B (tRNA splicing ligase complex subunit 3B)","TNF reporter robust z-score":0.01}
{"gene":"PDS5B (PDS5 cohesin associated factor B)","TNF reporter robust z-score":-0.02}
{"gene":"PDS5B (PDS5 cohesin associated factor B)","TNF reporter robust z-score":0.8}
{"gene":"PDS5B (PDS5 cohesin associated factor B)","TNF reporter robust z-score":0.72}
{"gene":"PDS5B (PDS5 cohesin associated factor B)","TNF reporter robust z-score":1.31}
{"gene":"HSPA9 (heat shock protein family A (Hsp70) member 9)","TNF reporter robust z-score":0.13}
{"gene":"HSPA9 (heat shock protein family A (Hsp70) member 9)","TNF reporter robust z-score":0.64}
{"gene":"HSPA9 (heat shock protein family A (Hsp70) member 9)","TNF reporter robust z-score":0.11}
{"gene":"HSPA9 (heat shock protein family A (Hsp70) member 9)","TNF reporter robust z-score":0.18}
{"gene":"RBMX2 (RNA binding motif protein X-linked 2)","TNF reporter robust z-score":1.3}
{"gene":"RBMX2 (RNA binding motif protein X-linked 2)","TNF reporter robust z-score":1.8}
{"gene":"RBMX2 (RNA binding motif protein X-linked 2)","TNF reporter robust z-score":0.91}
{"gene":"RBMX2 (RNA binding motif protein X-linked 2)","TNF reporter robust z-score":1.82}
{"gene":"FKBP10 (FKBP prolyl isomerase 10)","TNF reporter robust z-score":"4.12 (active)"}
{"gene":"FKBP10 (FKBP prolyl isomerase 10)","TNF reporter robust z-score":1.98}
{"gene":"FKBP10 (FKBP prolyl isomerase 10)","TNF reporter robust z-score":"3.11 (active)"}
{"gene":"FKBP10 (FKBP prolyl isomerase 10)","TNF reporter robust z-score":"4.42 (active)"}

7 entries from above in another layout.
gene,TNF reporter robust z-score
DDAH1 (dimethylarginine dimethylaminohydrolase 1),-0.81
DDAH1 (dimethylarginine dimethylaminohydrolase 1),-0.4
TOMM40L (translocase of outer mitochondrial membrane 40 like),-1.27
TOMM40L (translocase of outer mitochondrial membrane 40 like),-0.92
TOMM40L (translocase of outer mitochondrial membrane 40 like),-0.86
TOMM40L (translocase of outer mitochondrial membrane 40 like),-1.13
MS4A3 (membrane spanning 4-domains A3),1.16
